Only a part is listed here, and it is no random draw.
B1: FS-2553 (peptide)
chain: CARFKRKDRMAGNASASA
B2: FS-2941 (peptide)
chain: CARHPRRSRPAGNASASA
B3: FS-571 (peptide)
chain: CATSSRNARNAGNASASA
B4: HC1703 (peptide)
chain: CAMEACSQHLAGNASASA
B5: HC1671 (peptide)
chain: CADEECSQHLAGNASASA
B6: FS-2061 (peptide)
chain: CARPYRAIDFAGNASASA
B7: HC30 (peptide)
chain: CAMEECRQHLAGNASASA
B8: FS-999 (peptide)
chain: CAGKGRHHRGAGNASASA
B9: HC1424 (peptide)
chain: CADVRCHARKAGNASASA
B10: FS-1871 (peptide)
chain: CARVKKEWEEAGNASASA
B11: FS-264 (peptide)
chain: CALAARRRRSAGNASASA
B12: FS-155 (peptide)
chain: CAEEERRRREAGNASASA
B13: FS-854 (peptide)
chain: CARFRRKRRHAGNASASA
B14: FS-718 (peptide)
chain: CASILRQRRCAGNASASA
B15: FS-455 (peptide)
chain: CAKWLRKRRIAGNASASA
B16: FS-3024 (peptide)
chain: CARPRRRCSPAGNASASA
B17: FS-1078 (peptide)
chain: CASASRGPRSAGNASASA
B18: FS-1924 (peptide)
chain: CARRWRSLRPAGNASASA
B19: FS-1776 (peptide)
chain: CARRKRKKHRAGNASASA
B20: FS-2109 (peptide)
chain: CARVSRSSSAAGNASASA
B21: FS-1228 (peptide)
chain: CALLRRAKRSAGNASASA
B22: FS-1665 (peptide)
chain: CAYIHRIPRSAGNASASA
B23: FS-1315 (peptide)
chain: CADRLRVRRSAGNASASA
B24: FS-746 (peptide)
chain: CAAKHRTKRSAGNASASA
B25: FS-2217 (peptide)
chain: CARKRRSTDFAGNASASA
B26: FS-1730 (peptide)
chain: CARKNRSHIPAGNASASA
B27: FS-229 (peptide)
chain: CAEEIRVNRSAGNASASA
B28: HC1827 (peptide)
chain: CAFTPCSGSWAGNASASA
B29: FS-1914 (peptide)
chain: CARPVRCVEAAGNASASA
B30: FS-818 (peptide)
chain: CALGSRPARGAGNASASA
B31: FS-3021 (peptide)
chain: CARPRRGIIFAGNASASA
B32: FS-1144 (peptide)
chain: CANRQRVKRVAGNASASA
B33: FS-2543 (peptide)
chain: CAPQRRAVEPAGNASASA
B34: FS-659 (peptide)
chain: CAGSHMKRRSAGNASASA
B35: HC1924 (peptide)
chain: CATTPCSGSIAGNASASA
B36: FS-3053 (peptide)
chain: CARRKRHDIAAGNASASA
B37: FS-102 (peptide)
chain: CAVALRLRRSAGNASASA

Protein sequences, listed by entry. Tags and fused reporters are not part of them.
furin, P09958, UniProt P09958, whole entry: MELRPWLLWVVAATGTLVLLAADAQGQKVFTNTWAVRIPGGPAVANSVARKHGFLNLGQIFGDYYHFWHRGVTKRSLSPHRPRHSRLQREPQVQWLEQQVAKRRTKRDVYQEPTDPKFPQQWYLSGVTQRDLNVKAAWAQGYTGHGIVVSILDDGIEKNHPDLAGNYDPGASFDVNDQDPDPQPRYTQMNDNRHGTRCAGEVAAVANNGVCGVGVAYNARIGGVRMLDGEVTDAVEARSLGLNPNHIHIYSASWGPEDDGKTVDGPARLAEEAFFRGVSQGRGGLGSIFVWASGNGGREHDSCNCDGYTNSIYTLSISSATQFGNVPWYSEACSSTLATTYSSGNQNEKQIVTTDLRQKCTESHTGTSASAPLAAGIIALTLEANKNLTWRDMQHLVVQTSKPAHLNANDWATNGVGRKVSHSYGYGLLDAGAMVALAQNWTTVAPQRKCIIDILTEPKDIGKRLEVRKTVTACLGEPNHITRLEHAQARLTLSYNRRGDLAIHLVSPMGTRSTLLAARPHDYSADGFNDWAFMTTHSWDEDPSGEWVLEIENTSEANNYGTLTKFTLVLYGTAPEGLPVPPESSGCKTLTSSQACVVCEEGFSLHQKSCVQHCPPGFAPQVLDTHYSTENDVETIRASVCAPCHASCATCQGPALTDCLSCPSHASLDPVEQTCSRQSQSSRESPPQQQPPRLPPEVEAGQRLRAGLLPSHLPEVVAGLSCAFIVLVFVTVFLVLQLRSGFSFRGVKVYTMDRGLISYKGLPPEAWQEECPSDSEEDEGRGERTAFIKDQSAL

Biological target: furin, P09958
Test: furin cleavage Z-score vs untreated control; higher = more cleavage, active = 3.5 or more, inactive = 1 or less, 8 variable residues between constant flanks
Procedure, shortened: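 Furin cleavage was scored on 8-mer peptides joined to a cDNA oligonucleotide and bound to magnetic beads at the N-terminus. Digestion with purified furin (1:10 enzyme:substrate, 0.01 ml, 50 mM HEPES pH 7.5, CaCl2, NaCl) lasted 7.5, 15 or 30 min. Freed DNA was tagged with adapters by PCR, sequenced and counted; the cleavage Z-score is the lowess-adjusted log count versus furin-free reactions, scaled by median absolute deviation.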

Sequence | furin cleavage Z-score (7.5 min) | furin cleavage Z-score (15 min) | furin cleavage Z-score (30 min)
B1 | active: 4.28 | active: 3.52 | active: 4.13
B2 | 1.01 | 1.36 | 1.29
B3 | 3.05 | active: 4.2 | active: 5.2
B4 | 1.85 | 1.21 | 1.86
B5 | inactive: 0.117 | inactive: 0.56 | inactive: -0.0902
B6 | 1.01 | 1.47 | 2.09
B7 | 1.36 | 2.65 | 2.2
B8 | 3.13 | 1.4 | 3.02
B9 | 1.71 | 1.47 | 1.56
B10 | inactive: -0.778 | inactive: -0.527 | inactive: -1.03
B11 | active: 10.9 | active: 11 | active: 8.11
B12 | 1.73 | 1.87 | 2.22
B13 | active: 9.74 | active: 9.95 | active: 7.32
B14 | 2.96 | 2.4 | 2.95
B15 | 1.96 | 3.03 | 1.34
B16 | 1.15 | 1.37 | 1.27
B17 | active: 4.05 | active: 4.67 | active: 4.87
B18 | inactive: -0.388 | 2.12 | 2.35
B19 | 1.02 | 1.5 | 2.48

Sequence | furin cleavage Z-score (7.5 min) | furin cleavage Z-score (15 min) | furin cleavage Z-score (30 min)
B20 | 2.76 | 2.22 | 2.59
B21 | 2.43 | 1.99 | 1.9
B22 | 2.68 | 2.75 | 1.68
B23 | 1.98 | 1.87 | 1.5
B24 | active: 14.6 | active: 14.7 | active: 10.8
B25 | active: 9.58 | active: 11.2 | active: 9.06
B26 | inactive: 0.266 | inactive: -0.138 | inactive: -0.417
B27 | 2.33 | inactive: 0.724 | 1.69
B28 | inactive: -0.899 | inactive: -0.656 | inactive: -0.511
B29 | 2.19 | 3.43 | 3.29
B30 | 1.83 | 2.71 | 1.43
B31 | 1.06 | 1.16 | active: 5.75
B32 | 2.25 | 2.1 | 1.42
B33 | 1.48 | 1.56 | 1.85
B34 | inactive: -0.564 | inactive: 0.785 | 1.98
B35 | inactive: -0.658 | inactive: -0.276 | inactive: -1.61
B36 | active: 9.56 | active: 8.72 | active: 8.78
B37 | 2.12 | 1.69 | 1.38

Some of the entries above in another layout.
B25
  furin cleavage Z-score (7.5 min): active: 9.58
  furin cleavage Z-score (15 min): active: 11.2
  furin cleavage Z-score (30 min): active: 9.06
B26
  furin cleavage Z-score (7.5 min): inactive: 0.266
  furin cleavage Z-score (15 min): inactive: -0.138
  furin cleavage Z-score (30 min): inactive: -0.417
B27
  furin cleavage Z-score (7.5 min): 2.33
  furin cleavage Z-score (15 min): inactive: 0.724
  furin cleavage Z-score (30 min): 1.69
